# Results deposited as PubChem BioAssay AID504744 (Drosophila RNAi Screening Center, 2011).
# Screen: 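Identify dsRNAs that increase or decrease phospho-dAkt after insulin treatment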 (primary screen)
# Cells: Drosophila Kc167 cells
# Reagents: long dsRNA against Drosophila genes, 250 ng dsRNA per well of a 384-well plate
# Time to read-out: 3 days of knock-down, then overnight serum-free starvation before stimulation
# Treatment: bovine insulin at 387 nM for 10 minutes after 12 h without serum
# Read-out: 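Per-well phospho-dAkt level from an in-cell fluorescent antibody stain, divided by a DNA-dye signal; log2 residuals turned into z-scores that take cell number into account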
# Call rule: 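Hit in the insulin screen when the two-replicate mean z-score is more extreme than plus or minus 2.5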
# In all, the deposit lists about 23,000 reagents; below is an unselected part of those with a known target gene and a result. Of all reagents, 98 (0.43%) were called active. 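Only hit calls are given; the phospho-dAkt signals, z-scores and hit direction were not deposited.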 A plus sign joins genes that one reagent is predicted to hit. No sequences are given here.
gene,amplicon,activity call
disco-r (disco-related),DRSC20173,inactive
disco-r (disco-related),DRSC20174,inactive
blo (bloated),DRSC05937,inactive
"ATPsynbeta (ATP synthase, beta subunit)",DRSC17194,inactive
Jon25Bi (Jonah 25Bi),DRSC03434,inactive
CG12253,DRSC02153,inactive
dlt (discs lost),DRSC08705,inactive
Grl62c (Gustatory receptor-like 62c),DRSC07964,inactive
l(2)gl (lethal (2) giant larvae),DRSC00825,inactive
Obp18a (Odorant-binding protein 18a),DRSC19736,inactive
7B2,DRSC11991,inactive
sona (sol narae),DRSC04089,active
sona (sol narae),DRSC04574,inactive
sona (sol narae),DRSC04575,inactive
CG13198,DRSC06323,inactive
VhaM9.7-d (Vacuolar H[+] ATPase M9.7 subunit d),DRSC15028,inactive
Mgat1,DRSC07463,inactive
CG13056,DRSC09937,inactive
Trmt112 (tRNA methyltransferase subunit 11-2),DRSC11685,inactive
CG34214,DRSC04490,inactive
SP2353,DRSC07545,inactive
chic (chickadee),DRSC03507,inactive
D19B,DRSC11134,inactive
CG33673,DRSC00084,inactive
Tif-IA,DRSC03717,inactive
Tif-IA,DRSC03726,inactive
CG17187,DRSC15181,inactive
Syt1 (Synaptotagmin 1),DRSC00156,inactive
Syt1 (Synaptotagmin 1),DRSC00157,inactive
Syt1 (Synaptotagmin 1),DRSC00158,inactive
Syt1 (Synaptotagmin 1),DRSC00840,inactive
Syt1 (Synaptotagmin 1),DRSC22077,inactive
Hmbs (Hydroxymethylbilane synthase),DRSC08632,inactive
sowi (solwind),DRSC12558,inactive
tbc (trabuco),DRSC20540,inactive
CG7506,DRSC10860,inactive
CG12935 + Nop10,DRSC07025,inactive
Scamp,DRSC20286,inactive
Nmda1 (N-methyl-D-aspartate receptor-associated protein),DRSC07479,inactive
CG31103,DRSC22324,inactive
PH4alphaNE1 (prolyl-4-hydroxylase-alpha NE1),DRSC16546,inactive
RabX5,DRSC08608,inactive
Crtc (CREB-regulated transcription coactivator),DRSC10578,inactive
CG42597,DRSC03681,inactive
CG14005,DRSC02337,inactive
Pat1 (Protein interacting with APP tail-1),DRSC17750,inactive
ND-13A (NADH dehydrogenase (ubiquinone) 13 kDa A subunit),DRSC03110,inactive
RacGAP84C (Rac GTPase activating protein at 84C),DRSC12630,inactive
CG31036,DRSC15055,inactive
CG31036,DRSC15057,inactive
Cdc37 (Cell division cycle 37),DRSC08648,inactive
CG7714,DRSC16300,inactive
CG14837,DRSC10207,inactive
Jon74E (Jonah 74E),DRSC10617,inactive
orion,DRSC18213,inactive
orion,DRSC18214,inactive
CG32856,DRSC13124,inactive
Dyrk2 (Dual-specificity tyrosine phosphorylation-regulated kinase 2),DRSC03610,inactive
CG10738,DRSC09792,inactive
Tsp74F (Tetraspanin 74F),DRSC10508,inactive
CG14237,DRSC14731,inactive
wkd (whacked),DRSC15777,inactive
CG34345,DRSC02126,inactive
Syb (Synaptobrevin),DRSC07559,inactive
